Test results from patent US20190119397A1 (ZIELBIO, published 2019).
These are yes or no findings as the source states them, for the method shown. Some binding calls cover weakened binding; strength is not graded here.

Protein sequences, listed by entry. Tags and fused reporters are not part of them. Lines headed by an entry give the natural chain unless they say otherwise; changes in a name come on top.
UniProt Q15149: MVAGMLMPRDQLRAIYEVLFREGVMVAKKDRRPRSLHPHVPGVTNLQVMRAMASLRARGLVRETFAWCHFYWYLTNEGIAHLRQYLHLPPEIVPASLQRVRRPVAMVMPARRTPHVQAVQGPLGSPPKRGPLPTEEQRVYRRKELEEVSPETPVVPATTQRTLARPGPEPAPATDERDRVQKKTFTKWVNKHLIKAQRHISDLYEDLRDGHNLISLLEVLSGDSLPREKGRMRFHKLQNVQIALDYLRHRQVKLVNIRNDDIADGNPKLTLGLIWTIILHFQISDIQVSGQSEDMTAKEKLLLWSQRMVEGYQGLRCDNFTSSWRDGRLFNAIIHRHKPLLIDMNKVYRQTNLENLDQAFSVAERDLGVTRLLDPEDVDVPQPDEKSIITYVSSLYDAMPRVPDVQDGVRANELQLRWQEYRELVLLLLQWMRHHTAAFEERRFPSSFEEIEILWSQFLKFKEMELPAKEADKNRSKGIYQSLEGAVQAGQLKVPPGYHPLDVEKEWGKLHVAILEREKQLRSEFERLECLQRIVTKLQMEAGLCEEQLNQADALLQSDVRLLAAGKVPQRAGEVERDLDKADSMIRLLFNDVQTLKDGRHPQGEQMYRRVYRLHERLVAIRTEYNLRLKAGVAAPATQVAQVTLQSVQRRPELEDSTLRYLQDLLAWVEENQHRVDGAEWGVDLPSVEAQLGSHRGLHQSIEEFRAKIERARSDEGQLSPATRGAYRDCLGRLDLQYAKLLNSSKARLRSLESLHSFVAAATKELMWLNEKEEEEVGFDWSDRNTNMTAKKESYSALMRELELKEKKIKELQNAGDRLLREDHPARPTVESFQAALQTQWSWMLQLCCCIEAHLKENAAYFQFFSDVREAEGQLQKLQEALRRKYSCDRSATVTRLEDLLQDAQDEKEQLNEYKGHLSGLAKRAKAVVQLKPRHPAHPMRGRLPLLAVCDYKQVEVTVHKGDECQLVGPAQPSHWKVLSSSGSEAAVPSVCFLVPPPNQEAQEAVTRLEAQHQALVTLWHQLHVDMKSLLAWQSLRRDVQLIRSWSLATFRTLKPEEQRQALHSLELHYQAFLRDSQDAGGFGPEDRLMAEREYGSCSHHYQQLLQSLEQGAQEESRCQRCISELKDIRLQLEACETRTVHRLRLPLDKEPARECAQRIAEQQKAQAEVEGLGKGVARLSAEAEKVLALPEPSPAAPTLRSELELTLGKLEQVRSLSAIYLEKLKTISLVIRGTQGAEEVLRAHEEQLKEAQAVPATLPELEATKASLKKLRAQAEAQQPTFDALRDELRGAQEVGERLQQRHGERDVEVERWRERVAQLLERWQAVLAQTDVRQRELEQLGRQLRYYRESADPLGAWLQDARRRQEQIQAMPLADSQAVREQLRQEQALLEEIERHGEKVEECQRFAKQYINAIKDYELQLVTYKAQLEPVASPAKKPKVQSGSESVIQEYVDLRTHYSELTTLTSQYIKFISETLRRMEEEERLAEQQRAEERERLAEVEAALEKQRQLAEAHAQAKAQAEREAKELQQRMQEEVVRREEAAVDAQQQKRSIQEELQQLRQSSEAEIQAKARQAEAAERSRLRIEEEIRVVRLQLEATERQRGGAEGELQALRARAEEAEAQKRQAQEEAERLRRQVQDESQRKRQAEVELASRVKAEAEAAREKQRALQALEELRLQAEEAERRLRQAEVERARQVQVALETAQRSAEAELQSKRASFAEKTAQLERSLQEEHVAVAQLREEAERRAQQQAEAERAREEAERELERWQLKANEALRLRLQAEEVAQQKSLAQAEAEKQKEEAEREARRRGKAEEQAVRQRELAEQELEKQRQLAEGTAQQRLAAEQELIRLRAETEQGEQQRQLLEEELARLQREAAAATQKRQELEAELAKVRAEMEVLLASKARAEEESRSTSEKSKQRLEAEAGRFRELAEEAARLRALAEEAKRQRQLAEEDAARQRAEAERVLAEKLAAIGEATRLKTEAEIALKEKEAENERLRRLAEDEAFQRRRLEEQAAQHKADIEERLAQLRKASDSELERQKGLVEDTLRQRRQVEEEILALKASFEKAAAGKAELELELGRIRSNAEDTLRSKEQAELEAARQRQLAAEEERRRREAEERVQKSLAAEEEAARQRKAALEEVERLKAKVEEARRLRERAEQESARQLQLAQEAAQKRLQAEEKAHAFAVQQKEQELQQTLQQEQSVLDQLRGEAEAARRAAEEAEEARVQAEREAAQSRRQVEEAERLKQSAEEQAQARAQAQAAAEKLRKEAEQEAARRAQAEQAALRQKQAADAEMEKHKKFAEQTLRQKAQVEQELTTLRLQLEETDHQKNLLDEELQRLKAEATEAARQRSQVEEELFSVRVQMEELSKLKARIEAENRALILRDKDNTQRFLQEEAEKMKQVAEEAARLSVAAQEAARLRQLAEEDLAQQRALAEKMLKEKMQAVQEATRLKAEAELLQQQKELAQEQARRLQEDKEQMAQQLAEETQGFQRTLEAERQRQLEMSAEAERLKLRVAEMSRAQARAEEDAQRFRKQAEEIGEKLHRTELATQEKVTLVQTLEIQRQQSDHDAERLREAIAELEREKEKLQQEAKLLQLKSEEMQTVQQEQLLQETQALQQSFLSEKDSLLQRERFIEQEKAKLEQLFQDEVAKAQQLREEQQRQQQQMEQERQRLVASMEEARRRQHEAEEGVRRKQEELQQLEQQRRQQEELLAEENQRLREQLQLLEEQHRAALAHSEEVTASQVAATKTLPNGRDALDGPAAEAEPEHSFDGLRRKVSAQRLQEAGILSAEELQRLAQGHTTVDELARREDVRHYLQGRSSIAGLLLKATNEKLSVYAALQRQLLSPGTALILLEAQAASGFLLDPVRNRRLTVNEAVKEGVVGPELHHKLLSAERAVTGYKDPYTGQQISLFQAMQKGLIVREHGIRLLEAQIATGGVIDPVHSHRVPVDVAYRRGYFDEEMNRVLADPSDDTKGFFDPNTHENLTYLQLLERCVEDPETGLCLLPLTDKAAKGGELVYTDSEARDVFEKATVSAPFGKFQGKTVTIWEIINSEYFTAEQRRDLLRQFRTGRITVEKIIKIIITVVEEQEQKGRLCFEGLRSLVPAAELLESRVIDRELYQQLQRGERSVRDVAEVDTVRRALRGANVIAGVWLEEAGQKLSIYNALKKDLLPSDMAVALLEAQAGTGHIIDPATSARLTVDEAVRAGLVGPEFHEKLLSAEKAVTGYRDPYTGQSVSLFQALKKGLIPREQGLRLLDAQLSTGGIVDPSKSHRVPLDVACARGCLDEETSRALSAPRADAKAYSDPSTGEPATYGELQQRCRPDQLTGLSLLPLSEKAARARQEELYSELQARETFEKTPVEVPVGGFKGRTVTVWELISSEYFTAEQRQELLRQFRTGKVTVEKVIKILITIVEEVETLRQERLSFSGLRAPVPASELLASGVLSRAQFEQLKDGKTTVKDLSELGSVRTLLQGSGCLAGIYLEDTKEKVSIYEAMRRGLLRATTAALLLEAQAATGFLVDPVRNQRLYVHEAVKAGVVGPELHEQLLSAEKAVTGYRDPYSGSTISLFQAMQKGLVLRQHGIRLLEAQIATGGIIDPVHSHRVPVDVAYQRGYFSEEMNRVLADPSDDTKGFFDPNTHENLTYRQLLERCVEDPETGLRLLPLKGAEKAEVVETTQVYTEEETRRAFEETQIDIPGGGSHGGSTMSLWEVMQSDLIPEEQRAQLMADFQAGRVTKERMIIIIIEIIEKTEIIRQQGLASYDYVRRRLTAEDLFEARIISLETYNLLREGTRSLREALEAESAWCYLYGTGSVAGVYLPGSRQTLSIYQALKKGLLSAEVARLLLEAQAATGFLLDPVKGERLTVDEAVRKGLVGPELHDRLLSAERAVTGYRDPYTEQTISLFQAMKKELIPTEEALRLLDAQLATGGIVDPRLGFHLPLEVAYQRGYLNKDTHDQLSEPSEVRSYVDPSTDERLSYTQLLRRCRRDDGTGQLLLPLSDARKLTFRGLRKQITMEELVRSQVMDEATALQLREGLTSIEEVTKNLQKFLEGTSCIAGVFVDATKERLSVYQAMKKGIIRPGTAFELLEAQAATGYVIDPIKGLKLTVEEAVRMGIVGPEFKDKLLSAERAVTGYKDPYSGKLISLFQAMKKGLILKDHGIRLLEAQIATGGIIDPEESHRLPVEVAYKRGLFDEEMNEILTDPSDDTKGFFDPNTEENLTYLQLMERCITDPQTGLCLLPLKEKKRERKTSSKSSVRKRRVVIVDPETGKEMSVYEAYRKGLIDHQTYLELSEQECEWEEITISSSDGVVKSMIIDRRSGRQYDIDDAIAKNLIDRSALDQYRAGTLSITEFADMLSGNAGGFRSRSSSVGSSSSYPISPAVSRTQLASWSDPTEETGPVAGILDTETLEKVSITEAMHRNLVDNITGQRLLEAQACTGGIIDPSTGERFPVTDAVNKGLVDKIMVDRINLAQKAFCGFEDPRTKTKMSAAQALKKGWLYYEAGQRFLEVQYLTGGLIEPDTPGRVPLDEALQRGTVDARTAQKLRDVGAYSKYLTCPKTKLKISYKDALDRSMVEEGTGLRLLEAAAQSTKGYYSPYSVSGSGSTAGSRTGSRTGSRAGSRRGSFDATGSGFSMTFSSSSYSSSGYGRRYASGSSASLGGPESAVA

Tests used:
[1] = molecular target: T1, plectin-1 on the surface of cancer cells (Homo sapiens, UniProt Q15149 1-4684); assay: in vitro validation on YapC- or HPDE-coated plates (FIG. 1)
[2] = molecular target: human recombinant Sec 8 (plectin-1 Section 8) (human) (UniProt Q15149); assay: ELISA of hybridoma supernatants
[3] = molecular target: T1, plectin-1 on the surface of cancer cells; assay: in vitro binding assay on L3.6pl cells (FIG. 3B)
[4] = molecular target: T1, plectin-1 on the surface of cancer cells; assay: in vitro binding assay on cells

Measured: binding

B1: PAb1 (antibody, mouse IgG2b, kappa, V domains shown)
VH: QIQLVQSGPELKKPGETVKISCKASGYTFTDYSMHWVKQAPGKGLKWMGWINTETGEPTYADDFKGRFAFSLETSASTAYLQINNLKNEDTATYFCAPGGFAYWGQGTLVTVSA
VL: DIVMTQAAPSVPVTPGESVSISCRSSKSLLHSNGNTYLYWFLQRPGQSPQLLIYRMSNLASGVPDRFSGSGSGTAFTLRISRVEAEDVGVYYCMQHLEYPLTFGAGTKLELKR
notes: Mouse hybridoma monoclonal antibody; also called Plectin-1 mAb; Plectin-1mAb
binds: all assays above

B2: PAb2 (antibody, mouse IgG1, kappa, V domains shown)
VH: EVQLVESGGDLVKPGGSLKLSCAASGFTFSRYGMSWVRQTPDKRLEWVATISIGGTYTYYPDSMKGRFTISRDNAKNTLYLQMSSLKSEDTAMYYCARRGYGNYSYYGMDYWGQGTSVTVSS
VL: DIVMTQAAFSNPVTLGTSASISCRSSKSLLHSNGITYLYWYLQKPGQSPQLLIYQMSNLASGVPDRFSSSGSGTDFTLRISRVEAEDVGVYYCAQNLELPLTFGAGTKLELKR
binds: [1] | [2]
